The other results are listed elsewhere or left out.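 How the source made its calls: active = dose-dependent thermal stabilisation significant by F-test of dose-response against flat model at 10% FDR; inactive = not significant.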
compound: Nc1nc2c(ncn2[C@@H]2O[C@H](COP(=O)(O)OP(=O)(O)OP(=O)(O)O)[C@@H](O)[C@H]2O)c(=O)[nH]1; test: dose-dependent thermal stabilisation call (2D-TPP, DLPTP, 10% FDR) (binary (1 = stabilised)); higher = stabilised by the compound; conditions: system: Jurkat gel-filtered lysate; concentration range 1-500 µM

Chains of the proteins cited; added tags and fusions are not shown. Lines headed by an entry give the natural chain unless they say otherwise; changes in a name come on top.
UniProt Q9UNN5: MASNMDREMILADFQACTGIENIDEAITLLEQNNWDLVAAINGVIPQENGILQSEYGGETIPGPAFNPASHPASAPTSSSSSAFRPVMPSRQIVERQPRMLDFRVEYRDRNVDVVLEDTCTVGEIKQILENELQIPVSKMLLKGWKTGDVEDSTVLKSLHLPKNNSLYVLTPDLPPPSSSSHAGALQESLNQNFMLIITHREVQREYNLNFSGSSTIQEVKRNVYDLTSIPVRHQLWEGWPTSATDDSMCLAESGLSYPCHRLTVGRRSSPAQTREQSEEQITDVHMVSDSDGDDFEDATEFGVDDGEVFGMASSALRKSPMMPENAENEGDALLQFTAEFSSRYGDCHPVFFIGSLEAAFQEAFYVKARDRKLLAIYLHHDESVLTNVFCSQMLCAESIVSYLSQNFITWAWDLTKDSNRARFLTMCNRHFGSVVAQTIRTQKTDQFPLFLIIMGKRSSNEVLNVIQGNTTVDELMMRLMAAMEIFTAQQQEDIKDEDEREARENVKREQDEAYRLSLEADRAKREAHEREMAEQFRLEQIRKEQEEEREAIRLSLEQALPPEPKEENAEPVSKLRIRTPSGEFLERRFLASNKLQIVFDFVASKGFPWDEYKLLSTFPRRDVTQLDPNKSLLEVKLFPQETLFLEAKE
UniProt Q96JJ3: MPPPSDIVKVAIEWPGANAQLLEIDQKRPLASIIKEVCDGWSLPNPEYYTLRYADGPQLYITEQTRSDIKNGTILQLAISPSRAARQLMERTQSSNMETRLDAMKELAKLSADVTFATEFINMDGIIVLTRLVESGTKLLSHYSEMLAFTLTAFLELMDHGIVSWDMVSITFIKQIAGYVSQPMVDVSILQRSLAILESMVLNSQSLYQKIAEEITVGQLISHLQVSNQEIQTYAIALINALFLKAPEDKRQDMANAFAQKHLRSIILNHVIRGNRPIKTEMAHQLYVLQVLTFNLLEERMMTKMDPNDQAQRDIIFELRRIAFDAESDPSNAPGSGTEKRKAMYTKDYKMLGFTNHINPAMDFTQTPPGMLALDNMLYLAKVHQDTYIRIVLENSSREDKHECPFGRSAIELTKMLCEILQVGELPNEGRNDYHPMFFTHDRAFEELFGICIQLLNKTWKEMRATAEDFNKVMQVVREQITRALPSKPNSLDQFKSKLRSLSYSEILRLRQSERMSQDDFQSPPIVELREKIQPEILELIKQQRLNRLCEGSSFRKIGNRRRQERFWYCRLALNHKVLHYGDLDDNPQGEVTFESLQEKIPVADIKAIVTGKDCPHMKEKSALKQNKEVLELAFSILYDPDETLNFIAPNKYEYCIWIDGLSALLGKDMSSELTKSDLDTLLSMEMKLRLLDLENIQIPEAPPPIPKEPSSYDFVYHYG
UniProt Q13144, whole entry: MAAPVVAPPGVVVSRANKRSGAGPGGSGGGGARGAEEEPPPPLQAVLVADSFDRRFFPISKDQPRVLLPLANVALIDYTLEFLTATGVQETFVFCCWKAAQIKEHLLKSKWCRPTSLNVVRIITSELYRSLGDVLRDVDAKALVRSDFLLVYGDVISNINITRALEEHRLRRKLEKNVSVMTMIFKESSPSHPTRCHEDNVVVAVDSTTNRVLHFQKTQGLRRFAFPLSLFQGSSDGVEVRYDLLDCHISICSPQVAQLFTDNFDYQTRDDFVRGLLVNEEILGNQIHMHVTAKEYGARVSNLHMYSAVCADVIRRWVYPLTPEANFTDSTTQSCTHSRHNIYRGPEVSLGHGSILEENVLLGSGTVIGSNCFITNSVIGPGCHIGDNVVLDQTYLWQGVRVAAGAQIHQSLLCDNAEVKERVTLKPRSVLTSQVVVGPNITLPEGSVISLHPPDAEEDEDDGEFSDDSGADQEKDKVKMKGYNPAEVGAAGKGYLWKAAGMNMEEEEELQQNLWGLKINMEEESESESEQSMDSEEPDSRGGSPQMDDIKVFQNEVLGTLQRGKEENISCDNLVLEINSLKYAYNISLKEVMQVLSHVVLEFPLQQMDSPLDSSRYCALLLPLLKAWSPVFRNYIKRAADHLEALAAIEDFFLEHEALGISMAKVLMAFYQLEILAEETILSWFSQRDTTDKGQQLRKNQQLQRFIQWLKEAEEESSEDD
UniProt Q9NR50: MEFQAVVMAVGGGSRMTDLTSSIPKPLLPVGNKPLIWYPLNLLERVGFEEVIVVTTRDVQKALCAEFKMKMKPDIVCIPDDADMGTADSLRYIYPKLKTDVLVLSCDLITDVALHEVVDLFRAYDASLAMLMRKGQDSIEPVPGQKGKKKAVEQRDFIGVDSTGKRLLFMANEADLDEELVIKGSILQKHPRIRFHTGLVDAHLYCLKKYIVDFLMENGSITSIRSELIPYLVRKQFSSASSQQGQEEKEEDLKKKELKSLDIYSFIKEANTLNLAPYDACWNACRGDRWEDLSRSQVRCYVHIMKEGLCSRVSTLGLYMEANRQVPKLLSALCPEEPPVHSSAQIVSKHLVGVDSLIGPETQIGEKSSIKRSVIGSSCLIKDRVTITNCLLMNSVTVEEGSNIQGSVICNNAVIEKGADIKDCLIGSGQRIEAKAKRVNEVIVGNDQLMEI
UniProt P26885: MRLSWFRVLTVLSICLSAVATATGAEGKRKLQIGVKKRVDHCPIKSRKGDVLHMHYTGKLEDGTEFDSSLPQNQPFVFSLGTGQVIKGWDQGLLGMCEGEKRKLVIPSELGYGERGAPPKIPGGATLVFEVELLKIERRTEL
UniProt Q9UK73, whole entry: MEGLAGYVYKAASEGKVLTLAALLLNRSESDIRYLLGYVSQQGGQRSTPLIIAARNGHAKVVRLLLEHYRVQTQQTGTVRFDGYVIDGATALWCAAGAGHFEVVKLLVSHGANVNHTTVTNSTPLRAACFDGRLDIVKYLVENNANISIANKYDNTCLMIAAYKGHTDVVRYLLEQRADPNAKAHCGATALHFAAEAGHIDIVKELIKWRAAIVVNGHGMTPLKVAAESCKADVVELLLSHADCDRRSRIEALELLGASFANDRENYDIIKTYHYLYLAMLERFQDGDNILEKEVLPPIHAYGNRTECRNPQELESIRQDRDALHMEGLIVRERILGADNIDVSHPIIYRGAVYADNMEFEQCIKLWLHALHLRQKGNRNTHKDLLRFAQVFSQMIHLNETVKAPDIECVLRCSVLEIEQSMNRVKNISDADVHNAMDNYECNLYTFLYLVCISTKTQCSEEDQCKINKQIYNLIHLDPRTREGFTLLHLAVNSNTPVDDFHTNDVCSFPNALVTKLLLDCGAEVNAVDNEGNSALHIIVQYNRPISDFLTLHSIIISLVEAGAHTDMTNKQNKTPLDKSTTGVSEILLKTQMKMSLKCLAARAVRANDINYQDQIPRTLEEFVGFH
UniProt Q9NP50: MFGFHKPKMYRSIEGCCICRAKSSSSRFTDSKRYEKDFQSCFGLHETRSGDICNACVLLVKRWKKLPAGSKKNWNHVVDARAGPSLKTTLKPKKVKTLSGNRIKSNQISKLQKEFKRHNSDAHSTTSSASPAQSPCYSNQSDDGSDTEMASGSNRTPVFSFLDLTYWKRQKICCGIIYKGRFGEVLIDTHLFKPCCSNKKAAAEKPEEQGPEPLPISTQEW
UniProt P35637: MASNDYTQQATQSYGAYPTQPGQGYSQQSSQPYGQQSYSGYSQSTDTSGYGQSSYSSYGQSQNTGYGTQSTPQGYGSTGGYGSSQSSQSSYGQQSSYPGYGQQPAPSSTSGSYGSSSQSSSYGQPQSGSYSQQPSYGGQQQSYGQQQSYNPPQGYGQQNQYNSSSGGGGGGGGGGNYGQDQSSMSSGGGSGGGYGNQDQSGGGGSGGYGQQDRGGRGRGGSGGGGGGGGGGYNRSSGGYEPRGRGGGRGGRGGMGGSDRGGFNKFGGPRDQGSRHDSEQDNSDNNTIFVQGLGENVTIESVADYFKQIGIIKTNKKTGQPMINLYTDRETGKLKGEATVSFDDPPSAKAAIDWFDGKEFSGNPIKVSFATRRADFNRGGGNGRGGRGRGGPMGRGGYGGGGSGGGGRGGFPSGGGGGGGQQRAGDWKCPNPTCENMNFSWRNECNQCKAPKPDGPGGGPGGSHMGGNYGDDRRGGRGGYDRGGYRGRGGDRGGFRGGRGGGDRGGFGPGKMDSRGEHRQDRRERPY
UniProt P84090, whole entry, looked up: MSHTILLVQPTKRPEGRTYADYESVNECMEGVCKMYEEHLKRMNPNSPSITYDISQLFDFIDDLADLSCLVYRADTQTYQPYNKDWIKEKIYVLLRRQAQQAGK
UniProt P50548: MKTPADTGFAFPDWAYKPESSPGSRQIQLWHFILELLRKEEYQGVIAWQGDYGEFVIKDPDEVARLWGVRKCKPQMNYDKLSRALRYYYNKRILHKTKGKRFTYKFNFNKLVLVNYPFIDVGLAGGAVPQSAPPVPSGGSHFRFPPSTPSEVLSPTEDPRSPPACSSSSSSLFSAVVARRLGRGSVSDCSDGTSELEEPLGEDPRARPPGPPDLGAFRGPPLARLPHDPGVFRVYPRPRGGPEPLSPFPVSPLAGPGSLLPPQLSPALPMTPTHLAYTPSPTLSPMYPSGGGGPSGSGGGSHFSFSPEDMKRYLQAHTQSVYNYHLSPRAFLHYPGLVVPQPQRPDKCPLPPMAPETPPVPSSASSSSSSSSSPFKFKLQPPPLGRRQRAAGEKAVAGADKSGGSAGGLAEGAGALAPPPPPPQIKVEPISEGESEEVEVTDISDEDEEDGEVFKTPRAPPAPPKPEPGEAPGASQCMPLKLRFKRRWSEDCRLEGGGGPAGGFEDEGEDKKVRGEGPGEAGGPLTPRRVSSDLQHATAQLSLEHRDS
UniProt Q9Y6X4: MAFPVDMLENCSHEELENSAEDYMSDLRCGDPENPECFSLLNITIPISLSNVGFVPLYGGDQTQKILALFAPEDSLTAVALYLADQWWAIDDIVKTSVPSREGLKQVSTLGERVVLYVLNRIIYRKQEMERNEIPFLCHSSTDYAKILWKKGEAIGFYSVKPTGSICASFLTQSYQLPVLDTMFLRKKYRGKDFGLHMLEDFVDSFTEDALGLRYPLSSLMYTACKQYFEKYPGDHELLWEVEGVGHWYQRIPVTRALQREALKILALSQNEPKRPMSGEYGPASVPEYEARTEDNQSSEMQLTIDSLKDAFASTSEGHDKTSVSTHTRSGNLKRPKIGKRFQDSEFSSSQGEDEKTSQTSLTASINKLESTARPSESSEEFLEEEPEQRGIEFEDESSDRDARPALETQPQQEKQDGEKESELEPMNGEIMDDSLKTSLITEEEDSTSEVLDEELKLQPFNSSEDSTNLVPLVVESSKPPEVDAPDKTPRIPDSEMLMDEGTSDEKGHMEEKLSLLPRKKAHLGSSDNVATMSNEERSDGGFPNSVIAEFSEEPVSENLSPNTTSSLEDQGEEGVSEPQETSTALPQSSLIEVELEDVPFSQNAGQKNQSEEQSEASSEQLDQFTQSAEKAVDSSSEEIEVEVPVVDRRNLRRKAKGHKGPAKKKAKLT

Row | Target | dose-dependent thermal stabilisation call
1 | ETF1 (UniProt P62495) | inactive: 0
2 | FRMD8 (UniProt Q9BZ67) | inactive: 0
3 | EWSR1 (UniProt Q01844) | inactive: 0
4 | FAF1 (UniProt Q9UNN5) | inactive: 0
5 | FOXK2 (UniProt Q01167) | active: 1
6 | EGLN1 (UniProt Q9GZT9) | inactive: 0
7 | ELMO2 (UniProt Q96JJ3) | active: 1
8 | EIF2B5 (UniProt Q13144) | inactive: 0
9 | EIF2B3 (UniProt Q9NR50) | inactive: 0
10 | ELP6 (UniProt Q0PNE2) | inactive: 0
11 | ERCC6L (UniProt Q2NKX8) | inactive: 0
12 | EIF2AK2 (UniProt P19525) | inactive: 0
13 | FKBP2 (UniProt P26885) | inactive: 0
14 | EFL1 (UniProt Q7Z2Z2) | inactive: 0
15 | FLYWCH2 (UniProt Q96CP2) | inactive: 0
16 | EHBP1 (UniProt Q8NDI1) | inactive: 0
17 | FEM1B (UniProt Q9UK73) | inactive: 0
18 | FAM60A (UniProt Q9NP50) | inactive: 0

Row | Target | dose-dependent thermal stabilisation call
19 | FUS (UniProt P35637) | inactive: 0
20 | FKBP7 (UniProt Q9Y680) | inactive: 0
21 | EIF3K (UniProt Q9UBQ5) | active: 1
22 | EMD (UniProt P50402) | inactive: 0
23 | EPM2AIP1 (UniProt Q7L775) | inactive: 0
24 | EIPR1 (UniProt Q53HC9) | inactive: 0
25 | ERH (UniProt P84090) | inactive: 0
26 | ERP29 (UniProt P30040) | inactive: 0
27 | FNTA (UniProt P49354) | inactive: 0
28 | EIF3M (UniProt Q7L2H7) | inactive: 0
29 | ERF (UniProt P50548) | inactive: 0
30 | ERCC2 (UniProt P18074) | active: 1
31 | EXOC4 (UniProt Q96A65) | inactive: 0
32 | EML2 (UniProt O95834) | inactive: 0
33 | ELOA (UniProt Q14241) | inactive: 0
34 | EIF2AK4 (UniProt Q9P2K8) | inactive: 0
35 | FAM169A (UniProt Q9Y6X4) | inactive: 0
36 | FAM171A2 (UniProt A8MVW0) | inactive: 0

Reprinted: entries 23 to 24
Row | Target | dose-dependent thermal stabilisation call
23 | EPM2AIP1 (UniProt Q7L775) | inactive: 0
24 | EIPR1 (UniProt Q53HC9) | inactive: 0
